Laboratory results taken from patent US20050208512A1, “Determining the chemosensitivity of cells to cytotoxic agents” (The Ohio State University Research Foundation, priority 2003, published 2005).
Some entries share one result that the patent states for a list of compounds. For at least one compound, name, drawing or mass did not settle the structure. Some ranges recur; such a range may be that of the whole group of compounds.

System: SK-MEL-28 cells
Experiment: SRB cytotoxicity assay in SK-MEL-28 cells transfected with ABCB5 or mock siRNA
Assay type: cell-based, human
Conditions: mock vs ABCB5 siRNA, listed as CPT, 10-OH
Procedure: Human cancer cells were transfected with ABCB1, ABCB5 or mock siRNA. Drug activity was measured with the SRB assay. […] Results represent the mean of two or mean±SD of at least three independent experiments.
To identify suitable ABCB5 domains for siRNA-mediated gene silencing, siRNA duplexes against three target domains were synthesized and transfected into SK-MEL-28 cells.
Transfection was performed with TransMessenger Transfection Reagent (QIAGEN). To down-regulate ABCB1 or ABCB5, cancer cells were transfected with 0.3 or 0.6 μM siRNA. For RNA extraction, cells were harvested 48 hours after transfection.
Cytotoxicity assay. 5FU, Camptothecin, and Mitoxathone were obtained from Sigma. The other compounds were from Developmental Therapeutics Program at NCI. […] Anticancer drugs were added in a dilution series in 6 replicated wells. After 4 days, incubation was terminated by replacing the medium with 100 μl 10% trichloroacetic acid (Sigma, St. Louis, Mo.) in 1×PBS, followed by incubation at 4° C. for at least 1 hour. Subsequently, the plates were washed with water and air-dried. […] After air-drying and re-solubilization of the protein-bound dye in 10 mM Tris-HCl (pH 8.0), absorbance was read by a micro-plate reader at 570 nm. To determine the IC50 values, the absorbance of control cells without drug was set at 1. […]

**Q.** For `CC[C@@]1(O)C(=O)OCc2c1cc1n(c2=O)Cc2cc3cc(O)ccc3nc2-1` [CPT,10-OH], which Fold reversal is on record?
**A.** Its Fold reversal is 2-3.
